Laboratory results published in publication PMC6272893, “NO-Releasing Enmein-Type Diterpenoid Derivatives with Selective Antiproliferative Activity and Effects on Apoptosis-Related Proteins” (Molecules, 2016).

Experiment: Griess assay, NO-releasing ability
Conditions: 100 μM compound, time point of 60 min

SMILES	NO produced (Griess assay)
C=C1C(=O)C23C(=O)OC4CCC(C)(C)C5C(=O)OCC45C2CCC1C3OC(=O)CCC(=O)OCCOc1no[n+]([O-])c1S(=O)(=O)c1ccccc1 (stereo not drawn) [Compound 10a]	22.2 µmol/L
C=C1C(=O)C23C(=O)OC4CCC(C)(C)C5C(=O)OCC45C2CCC1C3OC(=O)c1ccccc1C(=O)OCCOc1no[n+]([O-])c1S(=O)(=O)c1ccccc1 (stereo not drawn) [Compound 10c]	36.2 µmol/L
C=C1C(=O)C23C(=O)OC4CCC(C)(C)C5C(=O)OCC45C2CCC1C3OC(=O)c1ccccc1C(=O)OCCCOc1no[n+]([O-])c1S(=O)(=O)c1ccccc1 (stereo not drawn) [Compound 10f]	33.7 µmol/L
